This passage reports binding results from patent US20190167710A1 (UNIVERSITY OF PITTSBURGH OF THE COMMONWEALTH SYSTEM OF …, published 2019).

Amino acid sequences for entries named in this document (tags omitted). Residues count along the entry.
UniProt Q9UM73, residues 19-1620: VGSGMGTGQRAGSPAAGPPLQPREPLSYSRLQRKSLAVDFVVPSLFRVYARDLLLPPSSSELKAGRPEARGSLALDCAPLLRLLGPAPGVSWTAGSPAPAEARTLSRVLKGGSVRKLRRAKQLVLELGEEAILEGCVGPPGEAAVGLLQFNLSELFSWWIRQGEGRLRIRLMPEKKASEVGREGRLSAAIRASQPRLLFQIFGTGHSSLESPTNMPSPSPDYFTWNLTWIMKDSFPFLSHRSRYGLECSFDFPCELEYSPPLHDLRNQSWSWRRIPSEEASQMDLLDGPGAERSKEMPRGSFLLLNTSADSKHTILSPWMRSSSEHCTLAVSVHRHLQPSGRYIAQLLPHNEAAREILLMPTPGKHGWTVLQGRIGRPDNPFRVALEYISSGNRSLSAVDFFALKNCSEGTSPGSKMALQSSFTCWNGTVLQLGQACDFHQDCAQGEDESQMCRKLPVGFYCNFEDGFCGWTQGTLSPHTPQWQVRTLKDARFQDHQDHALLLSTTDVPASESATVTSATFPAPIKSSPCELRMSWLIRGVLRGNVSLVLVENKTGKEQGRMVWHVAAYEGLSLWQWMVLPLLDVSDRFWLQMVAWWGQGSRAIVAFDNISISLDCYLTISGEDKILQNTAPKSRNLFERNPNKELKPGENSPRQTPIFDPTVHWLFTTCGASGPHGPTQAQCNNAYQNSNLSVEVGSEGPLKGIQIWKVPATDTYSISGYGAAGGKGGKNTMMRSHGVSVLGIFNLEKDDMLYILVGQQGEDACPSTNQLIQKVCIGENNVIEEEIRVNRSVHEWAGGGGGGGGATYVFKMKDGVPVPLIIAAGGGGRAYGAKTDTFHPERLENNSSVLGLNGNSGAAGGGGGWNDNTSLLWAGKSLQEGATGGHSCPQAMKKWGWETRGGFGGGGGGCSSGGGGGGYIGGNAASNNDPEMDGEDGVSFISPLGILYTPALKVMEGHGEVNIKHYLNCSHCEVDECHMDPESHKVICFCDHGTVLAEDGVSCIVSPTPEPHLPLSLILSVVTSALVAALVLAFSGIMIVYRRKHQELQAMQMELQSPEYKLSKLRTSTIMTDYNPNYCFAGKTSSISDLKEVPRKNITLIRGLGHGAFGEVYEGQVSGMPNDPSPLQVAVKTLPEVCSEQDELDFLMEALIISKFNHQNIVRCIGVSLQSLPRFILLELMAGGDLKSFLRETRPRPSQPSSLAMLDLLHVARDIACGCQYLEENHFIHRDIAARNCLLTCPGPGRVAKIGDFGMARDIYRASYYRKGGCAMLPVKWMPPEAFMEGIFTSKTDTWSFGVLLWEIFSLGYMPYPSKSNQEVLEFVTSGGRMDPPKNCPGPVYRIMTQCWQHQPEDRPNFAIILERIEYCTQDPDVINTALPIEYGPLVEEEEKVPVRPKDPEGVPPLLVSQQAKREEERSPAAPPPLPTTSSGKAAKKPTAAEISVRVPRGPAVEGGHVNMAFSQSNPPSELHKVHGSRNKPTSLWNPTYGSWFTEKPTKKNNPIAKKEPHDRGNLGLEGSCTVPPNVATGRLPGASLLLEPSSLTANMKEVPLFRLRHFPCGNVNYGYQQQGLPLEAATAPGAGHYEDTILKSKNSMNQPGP
UniProt P97793, residues 19-1621: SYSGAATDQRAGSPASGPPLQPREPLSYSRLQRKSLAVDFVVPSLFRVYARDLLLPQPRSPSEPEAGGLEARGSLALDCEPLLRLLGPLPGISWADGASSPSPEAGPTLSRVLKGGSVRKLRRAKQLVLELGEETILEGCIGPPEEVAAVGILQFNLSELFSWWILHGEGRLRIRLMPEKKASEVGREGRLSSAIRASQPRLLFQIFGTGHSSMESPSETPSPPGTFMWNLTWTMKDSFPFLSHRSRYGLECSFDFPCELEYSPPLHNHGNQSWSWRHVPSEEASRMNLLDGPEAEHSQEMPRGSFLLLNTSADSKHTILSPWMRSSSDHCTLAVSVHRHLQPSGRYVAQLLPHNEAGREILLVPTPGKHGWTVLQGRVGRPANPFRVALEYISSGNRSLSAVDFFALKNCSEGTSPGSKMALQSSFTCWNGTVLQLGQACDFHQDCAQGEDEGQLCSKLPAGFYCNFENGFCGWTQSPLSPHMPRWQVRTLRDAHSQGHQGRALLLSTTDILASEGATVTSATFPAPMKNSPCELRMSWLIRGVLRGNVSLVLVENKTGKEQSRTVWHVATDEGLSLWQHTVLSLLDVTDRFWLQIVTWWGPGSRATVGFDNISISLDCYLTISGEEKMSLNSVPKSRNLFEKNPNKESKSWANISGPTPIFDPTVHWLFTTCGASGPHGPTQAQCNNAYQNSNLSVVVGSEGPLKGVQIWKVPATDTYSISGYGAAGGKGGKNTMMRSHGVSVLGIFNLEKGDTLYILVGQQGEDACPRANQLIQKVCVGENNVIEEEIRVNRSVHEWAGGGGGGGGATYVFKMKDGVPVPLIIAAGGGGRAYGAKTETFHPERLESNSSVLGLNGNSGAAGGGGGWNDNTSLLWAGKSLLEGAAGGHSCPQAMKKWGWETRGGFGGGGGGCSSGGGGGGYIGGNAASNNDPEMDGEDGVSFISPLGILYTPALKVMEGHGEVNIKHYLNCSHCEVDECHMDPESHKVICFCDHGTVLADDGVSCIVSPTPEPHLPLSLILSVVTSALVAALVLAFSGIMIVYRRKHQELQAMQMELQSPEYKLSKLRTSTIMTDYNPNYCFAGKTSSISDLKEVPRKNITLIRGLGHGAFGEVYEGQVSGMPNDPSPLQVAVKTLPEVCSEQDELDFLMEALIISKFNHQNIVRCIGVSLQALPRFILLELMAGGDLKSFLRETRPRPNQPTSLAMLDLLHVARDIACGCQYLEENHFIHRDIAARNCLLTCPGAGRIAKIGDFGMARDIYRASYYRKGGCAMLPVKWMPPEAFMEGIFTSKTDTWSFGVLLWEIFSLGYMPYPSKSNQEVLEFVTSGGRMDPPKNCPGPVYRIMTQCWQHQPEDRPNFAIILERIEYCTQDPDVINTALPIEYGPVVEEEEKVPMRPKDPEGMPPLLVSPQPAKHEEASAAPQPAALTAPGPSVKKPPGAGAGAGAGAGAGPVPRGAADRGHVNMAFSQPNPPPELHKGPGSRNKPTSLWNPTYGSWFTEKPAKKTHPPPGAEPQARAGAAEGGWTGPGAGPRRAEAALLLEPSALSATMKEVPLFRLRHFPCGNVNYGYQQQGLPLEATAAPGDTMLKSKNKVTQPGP

No constants are given. Whether binding was seen depends on the method and setting. In cells and extracts the contact can be indirect. Some binding calls cover weakened binding; strength is not graded here.

Assay [1] has as its target epidermal growth factor receptor (EGFR), human, endogenous in THP1 cells (human) (UniProt P00533). Kind of assay: co-immunoprecipitation from THP1 lysates.
Assay [2] has the same target. Kind of assay: co-immunoprecipitation from THP1 lysates (FIG. 12).
Assay [3] deals with epidermal growth factor receptor (EGFR), mouse, endogenous in iBMDMs (mouse) (UniProt Q01279). Description: co-immunoprecipitation from iBMDM lysates.
For assay [4] the target is unchanged. Description: co-immunoprecipitation from iBMDM lysates (FIG. 9 panel D).

Take “anaplastic lymphoma kinase (ALK), human, endogenous in THP1 cells (from UniProt Q9UM73 19-1620) (receptor)”: the binding entry in assay [1] and in assay [2] was “binds” throughout.

As for “anaplastic lymphoma kinase (ALK), mouse, endogenous in iBMDMs and RAW264.7 cells (from UniProt P97793 19-1621) (receptor)”, the binding result in assay [3] and in assay [4] was “binds” in each case.
